Measured values reported in PubChem BioAssay AID2685 (National Center for Advancing Translational Sciences (NCATS), 2010).
The list shows a part of the results. The main result of the screen is listed elsewhere. These columns were measured beside it and carry no call. The list favours compounds with an active or inconclusive main result. Words in brackets tell the shape of the fitted curve; partial curves, single points and poor fits give uncertain potencies.

Assay: qHTS Assay for Lipid Storage Modulators in Drosophila S3 Cells;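 for cell number change: cells counted by Cell Tracker Red CMTPX staining in the red channel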
Settings: BODIPY lipid droplet fluorescence, 18-24 h; for cell number change: measured here: cell count max response, cells fed with added oleic acid
How it was run: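 Laser-scanning cytometry quantifies lipid droplet accumulation (500–530 nm total intensity; droplet/cell object ratio) in oleic acid-fed (400 uM added) Drosophila S3 cells treated with a concentration series. 20 uM Triacsin C defined 100% inhibition.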

[1] = measured here: lipid fluorescence (Fed channel) AC50, cells fed with added oleic acid
[2] = measured here: cell number channel AC50, cells fed with added oleic acid

SMILES	cell number change	AC50 [1]	AC50 [2]
O=C(NS(=O)(=O)N1CCCC1)C1=C(N2CCCC2)COC1=O	-6.88%	0.13 µM [falling, full curve, poor fit]	–
CC(=O)C1=C(c2ccccc2)NC(=O)NC1c1ccc2c(c1)OCO2 (stereo not drawn)	-6.45%	–	–
NC(=O)CSc1nc2ccccc2n1Cc1ccccc1	-25.9%	–	0.00461 µM [rising, full curve, poor fit]
Cc1cc(C(=O)COC(=O)C2=NNC(=O)CC2)c(C)n1-c1ccc(OC(F)F)cc1	-11.6%	–	–
CN(C)CCCNC(=O)c1ccc(-c2nc(-c3ccc(Cl)cc3)cs2)cc1	-42.1%	25.9 µM [falling, partial curve]	20.6 µM [falling, partial curve]
CCn1cc(Br)c(C(=O)Nc2ccc(OC)cc2)n1	–	2.06 µM [rising, full curve]	–
Cc1ccc(NC(=O)c2ccc(NCc3ccc(F)cc3)nc2)cc1	-11.9%	–	0.116 µM [falling, full curve, poor fit]
CCc1ccc(NC(=O)c2cnc(SC)nc2C)cc1	18%	29.1 µM [rising, single point]	–
O=S(=O)(c1cnc(Cl)c(Cl)c1)N1CCCc2ccccc21	7.91%	20.6 µM [rising, partial curve]	–
NS(=O)(=O)c1ccc(CCNC(=O)c2cc([N+](=O)[O-])ccc2N2CCCCC2)cc1	-4.17%	29.1 µM [rising, single point]	–
O=C(COC(=O)CCS(=O)(=O)c1ccc(F)cc1)NC1CCCCC1	-67.4%	1.3 µM [falling, full curve]	1.46 µM [falling, full curve]
Cc1ccc(NC(=O)Nn2cnnc2)cc1Cl	10.7%	32.6 µM [rising, single point]	–
CC(/C=N/n1c(-c2ccco2)n[nH]c1=S)=C\c1ccccc1	-43.1%	–	23.1 µM [falling, single point]
CCOC(=O)N1CCN(CC(=O)Nc2ccc(C)cc2)CC1	-13.6%	20.6 µM [rising, single point]	–
Cc1ccc2nc(NC(=O)C3CCN(C(=O)c4ccc(F)cc4)CC3)sc2c1	20.2%	1.03 µM [rising, partial curve]	–
COc1ccc(C2SCCN2C(=S)Nc2cccc(Cl)c2)cc1 (stereo not drawn)	-4.15%	11.6 µM [rising, partial curve, poor fit]	0.731 µM [falling, single point]
C[C@@H]1C[C@@H]2O[C@H]2/C=C\C=C\C(=O)Cc2c(Cl)c(O)cc(O)c2C(=O)O1	-23.5%	3.26 µM [falling, full curve]	–
C=CCN(CC(=O)NC1CCS(=O)(=O)C1)S(=O)(=O)c1ccccc1C(F)(F)F (stereo not drawn)	-4.74%	–	0.146 µM [falling, full curve, poor fit]
COC(=O)C(NC(=O)c1c(C)nn(C)c1Cl)c1ccccc1 (stereo not drawn)	0.519%	3.66 µM [falling, partial curve, poor fit]	–
Clc1ccccc1OCCn1nnc2ccccc21	11%	23.1 µM [rising, single point]	–

SMILES	cell number change	AC50 [1]	AC50 [2]
CCN(CC)S(=O)(=O)c1ccc(NC(=O)COC(=O)c2cnc(C)cn2)cc1	-23.8%	3.66 µM [falling, full curve]	4.11 µM [falling, full curve, poor fit]
COCCCNC(=S)NNC(=O)c1cc(C2CC2)nc2ccccc12	-39.6%	29.1 µM [rising, single point]	16.4 µM [falling, partial curve, poor fit]
COC(=O)c1[nH]c2cccc(OC)c2c1NC(=O)CCN1CC(C)CC(C)C1 (stereo not drawn)	-13.9%	23.1 µM [falling, partial curve]	–
CCN1C(=O)/C(=C\C(=O)c2cccs2)c2cc(Br)ccc21	38.3%	6.51 µM [rising, single point]	–
CCOc1ncccc1C(=O)OCC(=O)Nc1ccc2c(c1)OCO2	3.55%	–	2.06 µM [rising, single point]
c1ccc(Oc2ncnc3sccc23)cc1	-10.7%	–	–
FC(F)(F)c1nc(N2CCCC2)ncc1-c1nnnn1-c1ccc(Cl)cc1	-39.1%	4.11 µM [rising, single point]	23.1 µM [falling, single point]
CCN(CC)S(=O)(=O)c1ccc(C(=O)Nc2cccc(C)c2)cc1	36.1%	13 µM [rising, partial curve]	–
Cc1csc2ncc(C(=O)N3c4ccccc4CC3C)c(=O)n12 (stereo not drawn)	–	0.731 µM [falling, full curve, poor fit]	–
COc1ccc(C2=NN(CC(=O)Nc3ccccc3C)C(=O)CC2)cc1	–	0.164 µM [rising, full curve, poor fit]	0.0651 µM [rising, full curve, poor fit]
Cc1ccc(CN(CC(O)COc2cccc3[nH]cc(C)c23)C(C)(C)C)cc1 (stereo not drawn)	-16.7%	–	–
CCCCn1c(=O)[nH]c(=O)c2c1nc(-c1ccc(-c3ccccc3Br)o1)n2CCOC	22.5%	2.31 µM [rising, partial curve, poor fit]	–
Cc1cc(=O)oc2cc(OCC(=O)NCc3ccncc3)ccc12	16.2%	–	–
Cc1nn2c(N)c(-c3ccccc3)cnc2c1-c1ccccc1	-10.1%	0.116 µM [rising, full curve, poor fit]	–
COc1ccc(CCN(C)C2CCCN(C(=O)Cn3cnnn3)C2)cc1OC (stereo not drawn)	–	–	4.11 µM [falling, partial curve, poor fit]
CC(Sc1nnc(-c2ccc(OC(F)F)cc2)n1N)C(=O)NCC1CCCO1 (stereo not drawn)	4.27%	29.1 µM [rising, single point]	–
CCSC1=NC(C)(C)C=C(/C=C/c2ccc(Cl)cc2Cl)N1	-5.75%	29.1 µM [falling, single point]	–
COc1ccc(S(=O)(=O)n2ccc(-c3cnc(-c4ccccc4)s3)n2)cc1	71%	–	13 µM [rising, partial curve]
Cc1cccc(OCC(=O)N/N=C/c2cc([N+](=O)[O-])ccc2N2CCOCC2)c1	-52.1%	29.1 µM [falling, single point]	1.03 µM [falling, partial curve]
Cc1cc(NCc2ccccc2)n2ncc(-c3ccccc3)c2n1	98.6%	29.1 µM [falling, single point]	29.1 µM [rising, single point]

Quoted at random: 3 entries already listed
SMILES	cell number change	AC50 [1]	AC50 [2]
COCCCNC(=S)NNC(=O)c1cc(C2CC2)nc2ccccc12	-39.6%	29.1 µM [rising, single point]	16.4 µM [falling, partial curve, poor fit]
COc1ccc(C2=NN(CC(=O)Nc3ccccc3C)C(=O)CC2)cc1	–	0.164 µM [rising, full curve, poor fit]	0.0651 µM [rising, full curve, poor fit]
Cc1nn2c(N)c(-c3ccccc3)cnc2c1-c1ccccc1	-10.1%	0.116 µM [rising, full curve, poor fit]	–

Later entries.

SMILES	cell number change	AC50 [1]	AC50 [2]
Cc1ccccc1N1C(S)=C(C#N)C(=O)NC1c1cccs1 (stereo not drawn)	0.246%	20.6 µM [falling, single point]	–
Cc1nc(C)c(-c2ccc(SCC(=O)Nc3ccc(F)cc3F)nn2)s1	-0.0255%	–	–
O=C(c1ccco1)N1CCN(C(=S)Nc2ccc(F)cc2)CC1	20.8%	6.51 µM [falling, single point]	0.116 µM [rising, full curve, poor fit]
COCCCNC(=S)N(CCCN(C)C)Cc1cc2cc3c(cc2[nH]c1=O)OCCO3	-11%	6.51 µM [falling, single point]	–
CCCNC(=O)CN1C(=O)c2ccccc2Sc2ncccc21	16.9%	–	4.11 µM [rising, single point]
c1ccc(-c2oc3ncnc(N4CCOCC4)c3c2-c2ccccc2)cc1	160%	7.31 µM [rising, partial curve]	3.66 µM [rising, full curve]
CC(C)(C)OC(=O)NCc1ccc(NC(=O)c2nc[nH]c2C(=O)N[C@@H](Cc2ccccc2)C(=O)OC(C)(C)C)cc1	-28.8%	–	–
CCOC(=O)N1CCN(C(=O)c2cc(-c3ccc(F)cc3)[nH]c2C)CC1	–	0.517 µM [falling, full curve, poor fit]	–
Cc1ccc2nsnc2c1NC(=O)c1sc2ccccc2c1Cl	3.81%	2.06 µM [rising, single point]	–
O=C(c1nc2nc(-c3ccc(Cl)cc3)cc(C(F)(F)F)n2n1)N1CCOCC1	0.317%	–	4.11 µM [rising, single point]
Cc1ccc(C)c(S(=O)(=O)N2CCCOC2CNC(=O)C(=O)NCCc2ccccc2)c1 (stereo not drawn)	15%	6.51 µM [rising, partial curve, poor fit]	–
Cc1ccc(/C=C(/NC(=O)c2ccccc2)C(=O)NCCc2c[nH]c3ccccc23)o1	85.6%	–	–
COc1ccccc1Nc1c2ccccc2nc2ccccc12	-94%	20.6 µM [falling, partial curve]	23.1 µM [falling, partial curve]
Cc1nn(CC(=O)NCCCN2CCCCC2)c(=O)c2cccn12	31%	–	7.31 µM [rising, partial curve, poor fit]
O=[N+]([O-])c1ccc(-c2nc3ccc([N+](=O)[O-])cc3[nH]2)cc1	-14.7%	4.11 µM [falling, single point]	–
O=C(O)C(c1ccccc1)N1C(=O)/C(=C\c2ccc(O)c(O)c2)SC1=S (stereo not drawn)	-155%	14.6 µM [falling, partial curve]	–
O=C(Nc1nc2cc3c(cc2s1)OCCO3)c1ccc(N2C(=O)CCC2=O)cc1	-0.241%	29.1 µM [rising, single point]	–
CSc1cccc(NC(=O)CCn2c(=O)c3cccn3c3cccnc32)c1	-15.8%	29.1 µM [falling, single point]	–
CC12CN(C(=S)Nc3ccccc3)CC(C)(CN(C(=S)Nc3ccccc3)C1)C2=O	-39.6%	29.1 µM [falling, single point]	25.9 µM [falling, partial curve, poor fit]
